Reference: PubChem BioAssay AID602313 (National Center for Advancing Translational Sciences (NCATS), 2012)
The whole screen tested about 390,000 compounds, of which about 760 (0.19%) were called active. This list was built around the results that the source calls inconclusive (neither active nor inactive); the mix of calls is not that of the screen. Calls follow the shape of the dose curve; as a rule, active = well fitted inhibition curve with a large enough effect; inconclusive = small, poorly fitted or top-dose-only effect; inactive = flat fitted curve, though single readings scatter. Potencies beside an inconclusive call are fits to weak or partial responses and may not hold up.

Test: qHTS for Inhibitors of Vif-A3F Interactions: qHTS; also: nearly all actives have a fitted effect of over 65% in size
Details: HeLa A3F-eYFP + Vif (tagged APOBEC3F with the HIV-1 protein that degrades it), YFP fluorescence increase; series mostly up to 46.1 µM
In short: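 HeLa cells stably expressing Vif plus C-terminally eYFP-tagged A3F were seeded, incubated overnight at 37 deg C, dosed with compound, incubated overnight again at 37 deg C. Yellow fluorescence (Ex 488/Em 500-530) reported blocked Vif-mediated A3F-eYFP degradation.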
Potency is read from the fitted curve at half-maximal effect.

Row | SMILES | Potency
1 | N#Cc1cc2cc3ccccc3nc2n2c(=O)c3ccccc3nc12 | inconclusive: 5.62 µM [inhibitor, single point]
2 | O=C(Nc1ccc(Cl)cc1)c1cnn2c1NC(c1ccccc1)=CC2c1ccccc1 (stereo not drawn) | inconclusive: 22.4 µM [inhibitor, single point]
3 | CCc1oc(C(=O)OC)cc1CSC(=N)N | inconclusive: 35.5 µM [inhibitor, partial curve, poor fit]
4 | COc1ccccc1C(=O)NC(=O)COC(=O)Cc1n[nH]c(=O)c2ccccc12 | inconclusive: 6.31 µM [inhibitor, single point]
5 | CCN1CCN(c2c(/C=C3\SC(=S)N(Cc4ccco4)C3=O)c(C)c(C#N)c(=O)n2C)CC1 | inconclusive: 2.82 µM [inhibitor, full curve, poor fit]
6 | CCN(CC)CCNC(=O)c1ccc(NC(=O)C2CCN(S(=O)(=O)c3ccc4c(c3)OCCO4)CC2)cc1 | inconclusive: 3.98 µM [inhibitor, single point]
7 | Clc1nc2ccccc2cc1/C=N/Nc1nc2ccccc2[nH]1 | inconclusive: 7.94 µM [inhibitor, partial curve, poor fit]
8 | Cc1c(OC(C)C(=O)NCC(O)c2ccccc2)ccc2c3c(c(=O)oc12)CCCC3 (stereo not drawn) | inconclusive: 5.01 µM [inhibitor, single point]
9 | CCC(=O)N1c2ccccc2NC2=C(C(=O)CCC2)C1c1ccc(N(C)C)cc1 (stereo not drawn) | inactive
10 | Cc1nc2ccc(NC(=O)c3ccc([N+](=O)[O-])cc3)cc2[nH]1 | inconclusive: 2.51 µM [inhibitor, partial curve, poor fit]
11 | COc1ccc(CCNC(=O)c2ccc3c(c2)CCN3S(=O)(=O)c2ccccc2)cc1 | inactive
12 | Cc1ccc2[nH]c(=O)c(CNC(C)C)cc2c1 | inconclusive: 6.31 µM [inhibitor, single point]
13 | O=C(NN=Cc1ccccc1O)c1cccc([N+](=O)[O-])c1 | inconclusive: 25.1 µM [inhibitor, single point]
14 | CN=C(Nc1ccc(C(=O)OC)s1)c1ccc(Cl)cc1 | inconclusive: 8.91 µM [inhibitor, partial curve, poor fit]
15 | O=C(CCl)Nc1cc(-c2ccccc2)nn1-c1ccccc1 | inactive
16 | COc1cccc(C2N=C(c3ccccc3C)NO2)c1OC (stereo not drawn) | inconclusive: 6.31 µM [inhibitor, single point]
17 | Cc1ccc(Cl)cc1N1CCN(CC(O)COCc2ccco2)CC1 (stereo not drawn) | inactive
18 | O=C(CNCc1ccccc1)NCCCN1CCCC1=O | inconclusive: 1.41 µM [inhibitor, partial curve, poor fit]
19 | Cc1ccc(NC(=O)c2ccc(NCCN)c([N+](=O)[O-])c2)cc1 | inactive
20 | Cc1ccc2cc3c(NC(=O)c4ccco4)nn(CC(C)C)c3nc2c1 | inconclusive: 35.5 µM [inhibitor, single point]
21 | CC/C(O)=C1\C(=O)CC(C)(C)CC1=NCCc1nc2ccccc2[nH]1 | inconclusive: 1.78 µM [inhibitor, partial curve, poor fit]

2 of the compounds above, with tabs.
Row	SMILES	Potency
1	N#Cc1cc2cc3ccccc3nc2n2c(=O)c3ccccc3nc12	inconclusive: 5.62 µM [inhibitor, single point]
2	O=C(Nc1ccc(Cl)cc1)c1cnn2c1NC(c1ccccc1)=CC2c1ccccc1 (stereo not drawn)	inconclusive: 22.4 µM [inhibitor, single point]

(next part)

Row | SMILES | Potency
22 | COc1cccc(/C=C2/Sc3ccc(C(=O)NCCN4CCCCCC4)cc3NC2=O)c1 | inconclusive: 22.4 µM [inhibitor, single point]
23 | CC(C)c1ccc(C2C(C(=O)c3ccco3)=C(O)C(=O)N2CC2CCCO2)cc1 (stereo not drawn) | inconclusive: 12.6 µM [inhibitor, single point]
24 | Cc1ccc(C(=O)Oc2oc(-c3ccccc3)nc2C=Nc2ccc(N(C)C)cc2)cc1 | inconclusive: 35.5 µM [inhibitor, single point]
25 | CN=c1scc(-c2ccc(F)cc2)n1/N=C/c1ccc(O)c(O)c1 | inconclusive: 17.8 µM [inhibitor, single point]
26 | COc1ccc(/C(C)=N/NC(=O)c2ccc(NS(=O)(=O)c3cccs3)cc2)cc1 | inconclusive: 6.31 µM [inhibitor, single point]
27 | COc1ccc(-c2nc(Cn3c(SCc4ccc(C)cc4)nc4ccncc43)c(C)o2)cc1OC | inconclusive: 35.5 µM [inhibitor, single point]
28 | COc1cccc(F)c1C(=O)NC(=O)Nc1ccc2nc(C)oc2c1 | inconclusive: 35.5 µM [inhibitor, single point]
29 | O=S(=O)(c1ccc(F)cc1)N1CCc2ccccc21 | inconclusive: 35.5 µM [inhibitor, single point]
30 | CC(=O)c1sc(Nc2nc3cc4c(cc3s2)OCO4)nc1C | inconclusive: 20 µM [inhibitor, single point]
31 | O=C(O)c1nn(CCOc2cccc(Cl)c2)c(=O)c2ccccc12 | inconclusive: 35.5 µM [inhibitor, single point]
32 | S=c1[nH]nc(Cn2nnc3ccccc32)n1-c1ccccc1 | inactive
33 | Cc1ccc(Sc2ccc(N3CCCC(C(=O)Nc4ccc(F)c(Cl)c4)C3)nn2)cc1 (stereo not drawn) | inactive
34 | COc1ccc2nc(Nc3nc(CSc4ccc(C)cc4)cc(=O)[nH]3)nc(C)c2c1 | inconclusive: 8.91 µM [inhibitor, partial curve]
35 | CCC(c1nnnn1CCOC)N1CCN(c2nc3ccccc3s2)CC1 (stereo not drawn) | inconclusive: 6.31 µM [inhibitor, single point]
36 | O=C(CSc1nc2c(sc3ccccc32)c(=O)n1CCCN1CCCC1)NCc1ccco1 | inconclusive: 0.562 µM [inhibitor, full curve, poor fit]
37 | O=C(CSc1nc(=O)n2ccccc2n1)NCc1ccc2c(c1)OCO2 | inconclusive: 3.55 µM [inhibitor, single point]
38 | CC(C)(C)NC(=O)[C@@H]1C[C@@H]2CCCC[C@@H]2CN1C[C@@H](O)[C@H](Cc1ccccc1)NC(=O)[C@H](CC(N)=O)NC(=O)c1ccc2ccccc2n1 | inconclusive: 35.5 µM [inhibitor, single point]
39 | CC(C)c1noc(-c2ccccc2OCC(=O)Nc2ccc([N+](=O)[O-])cc2)n1 | inactive
40 | COc1ccc(NC(=O)CN(C)C(=O)CCC(=O)c2ccc(C)cc2)cc1 | inconclusive: 12.6 µM [inhibitor, single point]
41 | Cc1[nH]c2ccccc2c1/C=C/c1nc2ccccc2c(=O)[nH]1 | inconclusive: 35.5 µM [inhibitor, single point]
42 | Cc1ccc(N2C(=O)CS/C2=C(\C(Cl)=C(Cl)Cl)[N+](=O)[O-])cc1 | active: 25.1 µM

Row | SMILES | Potency
43 | O=C(N/N=C\c1c(O)ccc2ccccc12)c1ccc(S(=O)(=O)N2CCCCC2)cc1 | inconclusive: 6.31 µM [inhibitor, single point]
44 | CC(=O)Oc1cccc(C(=O)Nc2cccc(C(=O)Nc3ccccc3C(=O)O)c2)c1 | inconclusive: 0.316 µM [inhibitor, full curve, poor fit]
45 | O=C(COC(=O)c1ccc2c(c1)C(=O)N(Cc1ccncc1)C2=O)Nc1cccc2ccccc12 | inconclusive: 7.94 µM [inhibitor, partial curve, poor fit]
46 | Cc1nc2ccccc2c(=O)n1NC(=O)c1ccccc1Br | inconclusive: 14.1 µM [inhibitor, single point]
47 | CC(/C=C/c1ccc(N(C)C)cc1)=N/N=C1/NC(=O)CC(C(=O)Nc2ccc(Cl)cc2)S1 (stereo not drawn) | inconclusive: 35.5 µM [inhibitor, single point]
48 | OC(CN1C2=NCCN2c2ccccc21)c1ccc2c(c1)OCO2 (stereo not drawn) | inactive
49 | CCOc1ccc(Cl)cc1CNCCNCCO | inactive
50 | Cc1ccccc1-n1ccnc1SCC(=O)Nc1cccc(S(=O)(=O)NC2=NCCC2)c1 | inconclusive: 22.4 µM [inhibitor, single point]
51 | Cc1ccc(NC(=O)Cn2cc(S(=O)(=O)c3ccccc3)c(=O)c3cc(F)ccc32)cc1 | inconclusive: 25.1 µM [inhibitor, single point]
52 | CC(=O)Nc1ccc(NS(=O)(=O)c2ccc3c(c2)oc(=O)n3C)cc1 | inactive
53 | O=C(/C=C/c1ccc([N+](=O)[O-])cc1)c1ccccc(=O)c1O | inconclusive: 2.82 µM [inhibitor, partial curve, poor fit]
54 | C/C(=N\NC(=S)NCc1ccccc1)c1ccc2ccccc2c1 | inconclusive: 5.62 µM [inhibitor, single point]
55 | COC(=O)c1ccc(NC(=O)CSC2=NCCN2)cc1 | inconclusive: 35.5 µM [inhibitor, single point]
56 | COc1ccc(OC)c(CCNC(=O)Cn2cccc2C(=O)c2ccccc2C)c1 | inconclusive: 3.98 µM [inhibitor, full curve, poor fit]
57 | C=CCn1cc(/C=C2/NC(=O)NC2=O)c2ccccc21 | inconclusive: 22.4 µM [inhibitor, single point]
58 | Nc1c(N(CCC2=CCCCC2)C(=O)c2ccc([N+](=O)[O-])o2)c(=O)[nH]c(=O)n1Cc1ccccc1 | active: 22.4 µM
59 | Cc1nn(-c2ccccc2)c2sc(C(=O)NNC(=O)COc3cccc4ccccc34)cc12 | inconclusive: 35.5 µM [inhibitor, single point]
60 | CCCCCCN1C=CC=C/C1=C/C=C(C#N)C#N | inconclusive: 35.5 µM [inhibitor, single point]
61 | CCOc1ccccc1NC(=O)Cn1nnc(C(=O)NCc2cccs2)c1N | inconclusive: 35.5 µM [inhibitor, partial curve, poor fit]
62 | CCOC(=O)c1c(C)oc2c1c(C(c1cccnc1)N1CCOCC1)c(O)c1ccccc12 (stereo not drawn) | inactive
63 | CCCSc1ccc([C@@H]2[C@H]3C(=O)N(CC)C(=O)[C@H]3[C@]3(C(=O)OC)CCCCN23)cc1 | inconclusive: 28.2 µM [inhibitor, single point]
